Measurements taken from article PMC8298100.
Results are given in words; binding and its absence hold for the method and conditions named. Binding seen in cells or lysates may run through a third protein. Sequences can lack the tags named with a protein.

Legend:
Assay in all cases: co-IP; FLAG-TPD52, FLAG-TPD53 or FLAG-TPD54 coexpressed in HeLa with GFP-FKBP constructs; lysis in 10 mM Tris pH 7.5, 150 mM NaCl, 0.5 mM EDTA, 1% Triton X-100; anti-FLAG M2 magnetic beads 2 h at 4°C; Western blot with anti-GFP
FLAG-TPD53 (human) = molecular target: T1, FLAG-TPD53 (human) (UniProt Q16890)
T1 sequence: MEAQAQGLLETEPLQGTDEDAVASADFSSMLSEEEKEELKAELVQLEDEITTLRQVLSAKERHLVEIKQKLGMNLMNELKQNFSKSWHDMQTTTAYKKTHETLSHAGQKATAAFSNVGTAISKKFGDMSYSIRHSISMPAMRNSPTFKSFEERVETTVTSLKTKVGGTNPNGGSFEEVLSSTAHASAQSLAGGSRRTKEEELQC

FLAG-TPD54 (human) = FLAG-TPD54 (human) (UniProt O43399)
FLAG-TPD52 (human) = molecular target: T2, FLAG-TPD52 (human) (UniProt P55327)
T2 sequence: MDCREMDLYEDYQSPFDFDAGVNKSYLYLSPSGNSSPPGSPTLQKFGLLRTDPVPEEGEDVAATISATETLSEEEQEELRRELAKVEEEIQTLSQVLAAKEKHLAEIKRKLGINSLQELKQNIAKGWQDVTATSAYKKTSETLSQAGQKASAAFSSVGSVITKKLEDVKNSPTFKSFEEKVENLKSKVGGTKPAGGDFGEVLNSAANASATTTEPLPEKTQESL

Measured: binding

B1: GFP-FKBP-TPD54(L53P,L67P) (protein, UniProt O43399-1 1-206)
chain: MDSAGQDINLNSPNKGLLSDSMTDVPVDTGVAARTPAVEGLTEAEEEELRAEPTKVEEEIVTLRQVPAAKERHCGELKRRLGLSTLGELKQNLSRSWHDVQVSSAYVKTSEKLGEWNEKVTQSDLYKKTQETLSQAGQKTSAALSTVGSAISRKLGDMRNSATFKSFEDRVGTIKSKVVGDRENGSDNLPSSAGSGDKPLSDPAPF
no binding: all assays above
